Measured values taken from article doi:10.1101/2024.01.16.575708.
Results are given in words; binding and its absence hold for the method and conditions named. In cells and extracts the contact can be indirect. Some entries that bind do so weakly or less than the wild type.

The chains behind the UniProt entries cited, without tags or fusion partners.
UniProt Q39017: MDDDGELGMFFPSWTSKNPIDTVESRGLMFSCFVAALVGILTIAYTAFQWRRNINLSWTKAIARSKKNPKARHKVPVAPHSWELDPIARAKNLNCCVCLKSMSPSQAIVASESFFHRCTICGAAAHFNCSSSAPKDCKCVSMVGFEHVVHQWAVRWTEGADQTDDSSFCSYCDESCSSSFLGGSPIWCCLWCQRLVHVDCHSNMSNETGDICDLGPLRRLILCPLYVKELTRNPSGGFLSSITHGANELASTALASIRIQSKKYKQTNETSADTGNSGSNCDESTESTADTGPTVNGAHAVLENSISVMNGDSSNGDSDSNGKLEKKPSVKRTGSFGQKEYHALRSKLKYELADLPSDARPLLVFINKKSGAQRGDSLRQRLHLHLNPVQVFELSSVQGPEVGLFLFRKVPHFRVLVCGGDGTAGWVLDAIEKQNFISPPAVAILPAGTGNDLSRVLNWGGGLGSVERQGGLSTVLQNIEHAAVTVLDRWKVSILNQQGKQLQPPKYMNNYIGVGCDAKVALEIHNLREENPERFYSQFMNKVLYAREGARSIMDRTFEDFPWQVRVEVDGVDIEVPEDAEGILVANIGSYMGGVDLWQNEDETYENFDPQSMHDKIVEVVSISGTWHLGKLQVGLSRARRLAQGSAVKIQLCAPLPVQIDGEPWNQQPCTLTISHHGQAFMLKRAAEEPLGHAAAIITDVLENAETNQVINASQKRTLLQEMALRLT
UniProt Q9FFN7: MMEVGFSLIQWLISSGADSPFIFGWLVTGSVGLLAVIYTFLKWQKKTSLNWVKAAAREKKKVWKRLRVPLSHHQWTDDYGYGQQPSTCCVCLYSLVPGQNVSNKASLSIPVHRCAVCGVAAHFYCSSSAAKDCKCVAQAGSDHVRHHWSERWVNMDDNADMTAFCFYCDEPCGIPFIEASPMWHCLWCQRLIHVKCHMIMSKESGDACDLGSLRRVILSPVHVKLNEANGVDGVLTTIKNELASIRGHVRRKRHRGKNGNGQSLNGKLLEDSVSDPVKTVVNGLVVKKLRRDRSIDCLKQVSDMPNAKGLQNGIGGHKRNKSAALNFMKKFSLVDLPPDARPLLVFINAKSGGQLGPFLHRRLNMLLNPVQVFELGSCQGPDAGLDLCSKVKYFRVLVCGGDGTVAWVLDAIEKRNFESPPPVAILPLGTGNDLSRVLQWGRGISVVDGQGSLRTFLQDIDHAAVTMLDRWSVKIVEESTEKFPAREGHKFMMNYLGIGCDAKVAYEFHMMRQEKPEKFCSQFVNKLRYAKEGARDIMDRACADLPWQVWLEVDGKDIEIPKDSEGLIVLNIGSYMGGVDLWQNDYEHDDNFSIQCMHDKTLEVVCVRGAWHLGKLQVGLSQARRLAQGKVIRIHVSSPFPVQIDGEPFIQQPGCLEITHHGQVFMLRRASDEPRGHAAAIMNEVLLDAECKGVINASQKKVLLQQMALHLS

Columns and labels:
[1] = target: DGK1, full length, tagged to GFP or RFP (FRET) (Arabidopsis thaliana) (UniProt Q39017); assay: FRET or BRET
[2] = target: DGK1-GFP (Arabidopsis thaliana) (UniProt Q39017); assay: co-IP

binding [1]	binding [2]	Substance
binds		DGK2, full length, tagged to GFP or RFP (FRET) (from UniProt Q9FFN7 1-712)
	binds	DGK2-RFP (from UniProt Q9FFN7 1-712)
